According to patent US20030032092:

Key:
[1] = test system: bacteriophage lambda integrase (Int) + excisionase (Xis) (Bacteriophage lambda); assay: activity in cells; settings: E. coli G6289/pXL3955, Int plus Xis, 0.05% arabinose 1 h 30 C; attL x attR; protein in cells
[2] = biological target: T1, bacteriophage lambda integrase (Int) (Bacteriophage lambda) (UniProt P03700); assay: activity in cells; settings: protein in cells
T1 sequence (looked up, limits assumed): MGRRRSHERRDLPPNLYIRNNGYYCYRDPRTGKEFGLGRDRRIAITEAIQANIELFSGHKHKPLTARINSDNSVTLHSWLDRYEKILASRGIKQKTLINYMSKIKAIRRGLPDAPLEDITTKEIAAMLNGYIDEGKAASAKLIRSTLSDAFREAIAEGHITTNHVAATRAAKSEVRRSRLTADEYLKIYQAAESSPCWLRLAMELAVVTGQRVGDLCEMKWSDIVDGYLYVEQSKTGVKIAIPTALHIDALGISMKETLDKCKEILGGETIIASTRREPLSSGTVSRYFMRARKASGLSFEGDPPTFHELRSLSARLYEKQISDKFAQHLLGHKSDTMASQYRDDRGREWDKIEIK

“TTCTTTTTTTTCTTGAAGCCTGCTTTTTTATACTAAGTTGGCATTATAAAAAAGCATTGCTTATCAATTTGTTGCAACGAACAGGTCACTATCAGTCAAAATAAAATCATTATTTGATT (double strand) [attL-TH in pXL3955, with attR]” showed an activity on this sequence [1] of 80 % recombined.
“ACTAGTGGCCATGCATCCGCTCAAGTTAGTATAAAAAAGCAGGCTTCAG / AGCTCTGAAGCCTGCTTTTTTATACTAACTTGAGCGGATGCATGGCCACTAGTAGCT [attB (oligos 6194/6195) in pXL2777, with attP]” was tested, and the “activity on this sequence” value ([2]; E. coli D1210HP, 42 C 15 min then 30 C, minicircle and miniplasmid formed, including dimers) was “active”.
Work on “TCGAGTTCTTTTTTTTCTTGAAGCCTGCTTTTTTACTAACTTGAGCG / AGCTCGCTCAAGTTAGTATAAAAAAGCAGGCTTCAAGAAAAAAAAGAAC” yielded an activity on this sequence ([2]; E. coli G6264, pXL3909, arabinose induction, 30 C, none without inducer, pXL3948 more than 90% in fermentation) of 90 % recombined.

For part of these data: Tags and fusion partners may be left off the protein sequences shown. Construct, isoform or probe ends are uncertain for at least one entry.
